According to publication PMC2563034:
No constants are given. Whether binding was seen depends on the method and setting.

Sequences of proteins named here, by UniProt entry; tags and fusion partners are left off.
UniProt Q9VPL9: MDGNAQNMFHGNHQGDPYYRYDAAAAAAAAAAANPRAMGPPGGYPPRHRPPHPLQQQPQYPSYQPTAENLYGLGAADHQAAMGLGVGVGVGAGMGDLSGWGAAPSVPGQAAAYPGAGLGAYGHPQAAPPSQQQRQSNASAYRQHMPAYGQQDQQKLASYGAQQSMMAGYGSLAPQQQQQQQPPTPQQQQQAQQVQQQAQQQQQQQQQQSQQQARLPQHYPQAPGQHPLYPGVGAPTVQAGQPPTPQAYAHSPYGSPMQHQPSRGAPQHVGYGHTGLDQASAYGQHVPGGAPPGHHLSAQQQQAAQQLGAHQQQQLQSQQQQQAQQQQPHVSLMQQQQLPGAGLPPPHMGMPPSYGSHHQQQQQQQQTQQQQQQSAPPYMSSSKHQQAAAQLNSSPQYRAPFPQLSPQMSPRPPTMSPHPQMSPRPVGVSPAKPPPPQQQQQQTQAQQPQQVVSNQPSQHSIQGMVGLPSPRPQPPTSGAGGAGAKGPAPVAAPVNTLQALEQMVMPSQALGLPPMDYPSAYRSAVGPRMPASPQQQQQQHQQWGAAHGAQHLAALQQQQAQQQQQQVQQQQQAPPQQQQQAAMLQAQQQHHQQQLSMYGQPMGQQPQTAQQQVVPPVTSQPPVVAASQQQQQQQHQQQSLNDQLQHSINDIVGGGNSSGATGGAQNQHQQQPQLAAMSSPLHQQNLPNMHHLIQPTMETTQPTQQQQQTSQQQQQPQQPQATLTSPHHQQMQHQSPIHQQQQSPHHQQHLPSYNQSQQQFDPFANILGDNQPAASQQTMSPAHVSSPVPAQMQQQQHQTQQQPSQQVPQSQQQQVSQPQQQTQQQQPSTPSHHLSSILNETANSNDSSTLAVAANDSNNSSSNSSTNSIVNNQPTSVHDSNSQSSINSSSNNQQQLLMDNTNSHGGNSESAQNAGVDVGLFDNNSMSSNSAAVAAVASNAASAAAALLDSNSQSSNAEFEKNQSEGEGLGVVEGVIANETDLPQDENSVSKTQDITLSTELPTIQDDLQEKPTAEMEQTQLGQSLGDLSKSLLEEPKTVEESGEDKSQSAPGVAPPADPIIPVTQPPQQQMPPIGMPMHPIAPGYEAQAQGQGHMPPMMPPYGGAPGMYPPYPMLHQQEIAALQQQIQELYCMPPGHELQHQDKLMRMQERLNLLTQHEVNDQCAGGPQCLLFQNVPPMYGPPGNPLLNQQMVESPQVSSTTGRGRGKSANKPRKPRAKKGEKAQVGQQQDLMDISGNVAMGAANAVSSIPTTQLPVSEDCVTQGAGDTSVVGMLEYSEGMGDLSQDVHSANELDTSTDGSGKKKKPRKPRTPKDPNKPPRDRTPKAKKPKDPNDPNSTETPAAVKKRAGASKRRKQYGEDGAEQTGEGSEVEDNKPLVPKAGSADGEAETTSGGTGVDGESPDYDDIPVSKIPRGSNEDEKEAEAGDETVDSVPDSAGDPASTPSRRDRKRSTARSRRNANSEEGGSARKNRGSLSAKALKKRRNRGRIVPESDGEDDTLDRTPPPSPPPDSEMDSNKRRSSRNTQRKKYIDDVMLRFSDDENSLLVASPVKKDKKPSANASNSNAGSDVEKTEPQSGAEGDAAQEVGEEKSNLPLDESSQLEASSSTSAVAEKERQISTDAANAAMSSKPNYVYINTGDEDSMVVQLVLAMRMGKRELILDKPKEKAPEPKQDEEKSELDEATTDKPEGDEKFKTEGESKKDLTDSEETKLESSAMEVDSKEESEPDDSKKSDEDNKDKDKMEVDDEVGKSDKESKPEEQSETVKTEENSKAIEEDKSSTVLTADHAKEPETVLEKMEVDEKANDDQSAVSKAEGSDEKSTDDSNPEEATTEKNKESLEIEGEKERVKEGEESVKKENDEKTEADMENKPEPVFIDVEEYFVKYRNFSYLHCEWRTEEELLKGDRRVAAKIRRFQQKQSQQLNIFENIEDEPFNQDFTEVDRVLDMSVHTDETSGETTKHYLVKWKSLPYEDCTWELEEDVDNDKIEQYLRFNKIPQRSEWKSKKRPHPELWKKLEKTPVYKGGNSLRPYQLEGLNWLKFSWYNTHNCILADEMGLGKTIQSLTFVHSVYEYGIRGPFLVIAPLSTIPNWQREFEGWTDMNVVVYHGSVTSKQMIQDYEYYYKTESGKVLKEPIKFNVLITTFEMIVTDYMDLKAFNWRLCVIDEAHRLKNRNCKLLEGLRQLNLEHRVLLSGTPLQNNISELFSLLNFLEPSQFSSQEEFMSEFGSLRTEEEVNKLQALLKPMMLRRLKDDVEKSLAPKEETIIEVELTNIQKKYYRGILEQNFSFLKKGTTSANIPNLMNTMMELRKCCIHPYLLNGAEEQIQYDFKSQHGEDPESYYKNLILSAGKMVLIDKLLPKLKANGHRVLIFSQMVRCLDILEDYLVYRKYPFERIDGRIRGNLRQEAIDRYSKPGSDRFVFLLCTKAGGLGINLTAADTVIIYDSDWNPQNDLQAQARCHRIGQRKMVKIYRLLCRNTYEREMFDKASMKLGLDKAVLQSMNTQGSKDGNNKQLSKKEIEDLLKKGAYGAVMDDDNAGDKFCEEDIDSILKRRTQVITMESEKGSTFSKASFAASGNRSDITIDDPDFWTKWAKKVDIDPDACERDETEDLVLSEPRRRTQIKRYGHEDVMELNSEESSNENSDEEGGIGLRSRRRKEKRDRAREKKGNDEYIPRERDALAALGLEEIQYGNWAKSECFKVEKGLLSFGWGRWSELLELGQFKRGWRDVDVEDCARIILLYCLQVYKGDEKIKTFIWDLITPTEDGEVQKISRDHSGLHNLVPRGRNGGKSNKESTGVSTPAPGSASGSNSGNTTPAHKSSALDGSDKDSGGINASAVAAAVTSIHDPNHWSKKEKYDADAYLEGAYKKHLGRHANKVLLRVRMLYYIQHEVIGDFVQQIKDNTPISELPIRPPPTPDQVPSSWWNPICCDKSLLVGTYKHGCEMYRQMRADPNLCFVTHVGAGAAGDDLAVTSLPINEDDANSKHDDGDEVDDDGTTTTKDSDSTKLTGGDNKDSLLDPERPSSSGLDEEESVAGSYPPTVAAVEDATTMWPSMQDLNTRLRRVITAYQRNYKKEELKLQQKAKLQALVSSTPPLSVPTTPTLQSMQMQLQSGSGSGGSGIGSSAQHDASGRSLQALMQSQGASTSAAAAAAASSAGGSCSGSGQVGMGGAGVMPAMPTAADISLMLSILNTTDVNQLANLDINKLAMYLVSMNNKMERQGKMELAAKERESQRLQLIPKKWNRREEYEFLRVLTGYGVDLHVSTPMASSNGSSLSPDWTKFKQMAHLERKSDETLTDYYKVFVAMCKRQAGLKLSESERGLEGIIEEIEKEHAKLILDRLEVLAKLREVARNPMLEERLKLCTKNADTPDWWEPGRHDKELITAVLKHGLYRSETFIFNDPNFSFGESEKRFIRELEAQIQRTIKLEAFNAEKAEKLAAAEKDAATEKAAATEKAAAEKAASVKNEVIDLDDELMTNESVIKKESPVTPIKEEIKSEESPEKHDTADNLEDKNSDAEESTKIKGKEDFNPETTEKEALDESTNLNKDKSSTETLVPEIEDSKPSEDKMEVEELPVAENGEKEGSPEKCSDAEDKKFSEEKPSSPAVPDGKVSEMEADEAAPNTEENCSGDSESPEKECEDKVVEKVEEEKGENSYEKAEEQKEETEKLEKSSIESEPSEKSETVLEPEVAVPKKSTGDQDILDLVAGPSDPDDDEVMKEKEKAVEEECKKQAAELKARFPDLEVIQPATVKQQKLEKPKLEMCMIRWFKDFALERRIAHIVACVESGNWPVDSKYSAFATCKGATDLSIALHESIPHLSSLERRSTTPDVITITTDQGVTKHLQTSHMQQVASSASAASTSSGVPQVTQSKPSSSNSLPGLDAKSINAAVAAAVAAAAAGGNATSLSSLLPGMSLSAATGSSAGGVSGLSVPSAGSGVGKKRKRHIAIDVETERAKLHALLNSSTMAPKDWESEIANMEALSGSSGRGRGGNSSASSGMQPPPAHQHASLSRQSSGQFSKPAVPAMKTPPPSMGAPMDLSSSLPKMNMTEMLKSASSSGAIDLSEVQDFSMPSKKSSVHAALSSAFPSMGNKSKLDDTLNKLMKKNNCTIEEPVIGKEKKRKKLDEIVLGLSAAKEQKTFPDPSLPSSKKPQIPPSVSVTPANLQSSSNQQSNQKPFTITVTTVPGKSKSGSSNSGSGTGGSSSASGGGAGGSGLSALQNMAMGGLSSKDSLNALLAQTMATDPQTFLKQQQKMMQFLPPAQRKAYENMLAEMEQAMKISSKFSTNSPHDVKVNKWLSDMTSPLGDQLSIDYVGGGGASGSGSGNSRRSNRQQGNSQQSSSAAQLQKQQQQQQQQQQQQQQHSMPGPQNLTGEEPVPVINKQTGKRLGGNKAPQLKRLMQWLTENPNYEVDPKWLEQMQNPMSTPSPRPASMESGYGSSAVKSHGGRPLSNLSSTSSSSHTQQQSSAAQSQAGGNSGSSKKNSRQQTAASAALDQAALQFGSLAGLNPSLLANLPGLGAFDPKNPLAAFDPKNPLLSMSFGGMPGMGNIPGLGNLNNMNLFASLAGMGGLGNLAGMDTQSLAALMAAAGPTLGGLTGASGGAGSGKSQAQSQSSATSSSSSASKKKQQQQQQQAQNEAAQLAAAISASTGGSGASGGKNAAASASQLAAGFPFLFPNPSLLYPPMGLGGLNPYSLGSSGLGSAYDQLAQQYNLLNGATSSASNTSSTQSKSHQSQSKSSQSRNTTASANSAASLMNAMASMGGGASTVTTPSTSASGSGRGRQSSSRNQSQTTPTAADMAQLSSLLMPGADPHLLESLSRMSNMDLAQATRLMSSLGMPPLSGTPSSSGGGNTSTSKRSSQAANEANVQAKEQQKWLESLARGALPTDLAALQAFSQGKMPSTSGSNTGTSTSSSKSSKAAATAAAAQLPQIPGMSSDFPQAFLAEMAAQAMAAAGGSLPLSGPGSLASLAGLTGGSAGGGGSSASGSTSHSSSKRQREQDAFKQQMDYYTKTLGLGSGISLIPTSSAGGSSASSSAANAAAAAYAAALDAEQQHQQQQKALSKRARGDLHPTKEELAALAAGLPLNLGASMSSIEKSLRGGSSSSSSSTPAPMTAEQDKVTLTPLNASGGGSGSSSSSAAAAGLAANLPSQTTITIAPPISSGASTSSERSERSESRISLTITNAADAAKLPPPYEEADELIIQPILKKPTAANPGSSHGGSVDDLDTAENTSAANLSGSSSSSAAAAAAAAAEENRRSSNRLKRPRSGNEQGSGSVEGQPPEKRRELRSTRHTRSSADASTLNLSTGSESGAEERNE

Molecular target: Kismet-L (KIS-L), full-length protein from Drosophila embryo extracts (Drosophila (endogenous in embryos)) (UniProt Q9VPL9)
Test: sucrose density gradient sedimentation; extracts of 0-16 hour Drosophila embryos, 5-30% sucrose gradient in 50 mM Hepes pH 7.6, 500 mM NaCl, 0.55% Tween-20, 10% glycerol, 1 mM MgCl2, 1 mM EDTA, 4°C, 20 hours at 35,000 rpm (SW41); fractions blotted for BRM, KIS-L and ISWI

Q: With “Kismet-L (KIS-L), full-length protein from Drosophila embryo extracts (from UniProt Q9VPL9 1-5322)” as the substance, how does the binding read?
A: The binding was “no binding”.
